{"sequences": {"note": "Protein sequences, listed by entry. Tags and fused reporters are not part of them. Residues count along the entry.", "UniProt P05622, 32-1098": "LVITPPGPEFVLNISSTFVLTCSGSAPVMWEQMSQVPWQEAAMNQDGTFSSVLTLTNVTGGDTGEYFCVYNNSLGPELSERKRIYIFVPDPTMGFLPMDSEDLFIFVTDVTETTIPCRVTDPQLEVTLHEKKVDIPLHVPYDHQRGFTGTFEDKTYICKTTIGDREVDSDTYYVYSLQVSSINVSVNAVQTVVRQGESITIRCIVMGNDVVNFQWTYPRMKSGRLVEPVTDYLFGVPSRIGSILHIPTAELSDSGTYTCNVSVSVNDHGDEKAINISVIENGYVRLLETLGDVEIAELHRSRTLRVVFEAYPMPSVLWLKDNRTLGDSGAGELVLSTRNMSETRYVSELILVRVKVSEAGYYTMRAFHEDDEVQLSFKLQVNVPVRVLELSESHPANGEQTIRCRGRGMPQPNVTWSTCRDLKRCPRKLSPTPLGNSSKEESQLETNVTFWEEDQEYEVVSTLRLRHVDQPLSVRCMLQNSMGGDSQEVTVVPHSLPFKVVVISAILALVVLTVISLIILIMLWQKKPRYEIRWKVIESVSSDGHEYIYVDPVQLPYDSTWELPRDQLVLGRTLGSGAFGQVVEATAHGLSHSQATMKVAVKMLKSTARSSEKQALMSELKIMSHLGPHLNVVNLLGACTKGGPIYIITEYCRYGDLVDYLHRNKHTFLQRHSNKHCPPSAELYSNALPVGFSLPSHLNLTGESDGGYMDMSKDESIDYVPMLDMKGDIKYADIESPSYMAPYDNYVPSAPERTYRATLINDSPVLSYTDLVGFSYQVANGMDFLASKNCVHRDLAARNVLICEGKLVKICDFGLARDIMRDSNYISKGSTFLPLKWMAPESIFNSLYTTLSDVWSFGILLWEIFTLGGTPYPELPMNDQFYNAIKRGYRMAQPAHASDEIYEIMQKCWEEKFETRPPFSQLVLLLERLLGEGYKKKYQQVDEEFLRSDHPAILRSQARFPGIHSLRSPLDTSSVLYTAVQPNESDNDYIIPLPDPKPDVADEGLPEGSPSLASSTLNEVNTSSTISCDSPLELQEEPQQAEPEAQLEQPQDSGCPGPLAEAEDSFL"}, "source": "patent US8691777B2", "about": "“Combination therapy” (Emory University, priority 2011, dated 2014)", "key": {"[1]": {"test_system": "tsc2ang1 cells", "assay": "proliferation assay with tsc2ang1 cells (Coulter counter)", "format": "cell-based, murine", "conditions": "rapamycin 5 nM, imatinib 10 μM, 24 hours, vs DMSO control", "protocol": "10^4 tsc2ang1 cells per well were plated in 24-well dishes in triplicate. The next day, fresh medium containing the compounds or vehicle controls was added. Cells were incubated at 37° C. Tsc2ang1 (ATCC CRL 2620) is a murine cell line derived from a cutaneous sarcoma that arose in the extremity of a mouse heterozygous for tsc2; these mice develop cutaneous sarcomas at a frequency of about 10 to 15%. The cells were cultured in complete DMEM medium supplemented with 10% FBS (Sigma Aldrich, St Louis, Mo.). […] Cells were treated with vehicle control (DMSO), rapamycin (5 nM), imatinib (10 μM) or imatinib (10 μM)+rapamycin (5 nM) (shown along X-axis) for 24 h and counted using a Coulter counter. The Y-axis represents cell number with error bars representing the SEM."}, "[2]": {"test_system": "MMP-2", "assay": "gelatin zymography of conditioned media of tsc2ang1 cells", "format": "cell-based, murine", "conditions": "24 hours, vs DMSO-treated control"}, "[3]": {"test_system": "kidney, lung and skin lesions", "conditions": "sirolimus therapy; Franz et al., Bissler et al.; cited from earlier work"}, "[4]": {"biological_target": "PDGFR-β (Mus musculus, UniProt P05622)", "assay": "Western blot of PDGFR-β and phospho-PDGFR-β in Tsc2ang1 cells", "conditions": "imatinib 10 μm, rapamycin 10 nM, vs DMSO control"}}, "note": "For at least one compound, name, drawing or mass did not settle the structure."}
{"compound": "CO[C@H]1C[C@@H]2CC[C@@H](C)[C@@](O)(O2)C(=O)C(=O)N2CCCC[C@H]2C(=O)O[C@H]([C@H](C)C[C@@H]2CC[C@@H](O)[C@H](OC)C2)CC(=O)[C@H](C)/C=C(\\C)[C@@H](O)[C@@H](OC)C(=O)[C@H](C)C[C@H](C)/C=C/C=C/C=C/1C", "note": "[rapamycin, sirolimus]", "values": [{"measurement": "viable cell number", "setting": "[1]", "result": "decrease in the viable cell numbers"}, {"measurement": "MMP-2 gelatinase activity", "setting": "[2]", "result": "decrease in the level of MMP-2"}, {"measurement": "regression of lesions in TS patients", "setting": "[3]", "result": "partial regression of kidney, lung and skin lesions"}, {"measurement": "PDGFR β level", "setting": "[4]", "result": "upregulation of PDGFR β"}, {"measurement": "PDGFR β phosphorylation", "setting": "[4]", "result": "increased phosphorylation at Tyr-1009"}]}
